Data as given in PubChem BioAssay AID1259254 (NCATS, 2017)

Test: 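Genome-wide screen for genes that prevent DNA re-replication in cancer cells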 (primary screen)
Cell system: human HCT116 colorectal cancer cells
Reagent: single siRNA against human genes
Duration: 3 days
Detection: 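Nuclei stained with Hoechst and imaged; cell-cycle phase assigned by DNA content; G2 share scaled per plate, non-targeting siRNA 0%, GMNN siRNA 100%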
Direction: G2 robust z-score and G2 cells, % of GMNN control: higher = more G2 cells, more excess DNA replication; raw share of cells in G2: higher = larger share of cells with G2 DNA content
Rule for the call: 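An siRNA counts as active if its G2 robust z-score lies at least 5 MADs above the screen median; here such calls match roughly 38% of GMNN control or more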
In all, the deposit lists about 59,000 reagents; below is an unselected part. In the full data, about 1,550 (2.6%) are marked active. 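G2 share is only a proxy for re-replication; each gene was hit by three separate siRNAs, and active genes were retested.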 Raw values are not corrected between plates. Not given: the amount of reagent.

no.	gene	PubChem SID	G2 robust z-score	G2 cells, % of GMNN control	raw share of cells in G2 (%)	Outcome
1	IGFBP1 (insulin like growth factor binding protein 1)	SID160733136	8.26	61.1	27.4	active
2	IGFBP1 (insulin like growth factor binding protein 1)	SID160775629	-0.341	0.567	5.57	inactive
3	IGFBP1 (insulin like growth factor binding protein 1)	SID160775630	0.666	7.65	6.89	inactive
4	RIN3 (Ras and Rab interactor 3)	SID160749705	1.77	15.4	10.9	inactive
5	RIN3 (Ras and Rab interactor 3)	SID160749706	-0.117	2.14	5.24	inactive
6	RIN3 (Ras and Rab interactor 3)	SID160749708	0.0264	3.15	3.24	inactive
7	SDC2 (syndecan 2)	SID160716510	0.702	7.91	8.34	inactive
8	SDC2 (syndecan 2)	SID160716511	0.523	6.65	6.85	inactive
9	SDC2 (syndecan 2)	SID160716512	2.13	17.9	9.83	inactive
10	SLC17A8	SID160730884	3.17	25.3	14	inactive
11	SLC17A8	SID160762007	-0.0911	2.33	7.07	inactive
12	SLC17A8	SID160762008	-0.122	2.11	5.59	inactive
13	LRRC20 (leucine rich repeat containing 20)	SID160733592	-0.596	-1.23	2.74	inactive
14	LRRC20 (leucine rich repeat containing 20)	SID160743269	-1.2	-5.47	2.42	inactive
15	LRRC20 (leucine rich repeat containing 20)	SID160743271	-0.226	1.38	4.71	inactive
16	GPHA2 (glycoprotein hormone subunit alpha 2)	SID160760430	1.91	16.4	9.48	inactive
17	GPHA2 (glycoprotein hormone subunit alpha 2)	SID160760431	-0.499	-0.547	2.78	inactive
18	GPHA2 (glycoprotein hormone subunit alpha 2)	SID160760432	2.69	21.9	9.69	inactive
19	FST (follistatin)	SID160728498	-0.417	0.0328	3.54	inactive
20	FST (follistatin)	SID160728499	0.836	8.85	9.93	inactive
21	FST (follistatin)	SID160728500	-0.716	-2.07	2.47	inactive
22	QRFP (pyroglutamylated RFamide peptide)	SID160725118	-0.142	1.97	4.66	inactive
23	QRFP (pyroglutamylated RFamide peptide)	SID160725119	-0.523	-0.713	2.95	inactive
24	QRFP (pyroglutamylated RFamide peptide)	SID160725120	-0.101	2.26	5.1	inactive
25	DOCK5 (dedicator of cytokinesis 5)	SID160749936	2.46	20.3	12.9	inactive
26	DOCK5 (dedicator of cytokinesis 5)	SID160749939	1.51	13.6	10.3	inactive
27	DOCK5 (dedicator of cytokinesis 5)	SID160749940	-1.32	-6.3	0.655	inactive
28	CLCA4 (chloride channel accessory 4)	SID160731268	0.173	4.18	6.81	inactive
29	CLCA4 (chloride channel accessory 4)	SID160731277	1.09	10.6	8.38	inactive
30	CLCA4 (chloride channel accessory 4)	SID160731285	-0.686	-1.86	3.65	inactive
31	LINC01168 (long independently transcribed non-coding RNA 1168)	SID160725327	1.28	12	8.18	inactive
32	LINC01168 (long independently transcribed non-coding RNA 1168)	SID160725328	0.366	5.54	5.72	inactive
33	LINC01168 (long independently transcribed non-coding RNA 1168)	SID160733299	-0.462	-0.285	4.67	inactive
34	EGFEM1P (EGF like and EMI domain containing 1, pseudogene)	SID160725224	0.0901	3.6	4.97	inactive
35	EGFEM1P (EGF like and EMI domain containing 1, pseudogene)	SID160733230	0.097	3.65	6.2	inactive
36	EGFEM1P (EGF like and EMI domain containing 1, pseudogene)	SID160762107	-0.448	-0.185	3.51	inactive
37	EGFEM1P (EGF like and EMI domain containing 1, pseudogene)	SID160762108	0.674	7.71	5.77	inactive
38	EGFEM1P (EGF like and EMI domain containing 1, pseudogene)	SID160762109	0.327	5.27	4.88	inactive
39	EGFEM1P (EGF like and EMI domain containing 1, pseudogene)	SID160766126	-0.181	1.7	4.35	inactive
40	TSSC4 (tumor suppressing subtransferable candidate 4)	SID160725072	0.443	6.09	8.08	inactive
41	TSSC4 (tumor suppressing subtransferable candidate 4)	SID160725079	-0.227	1.37	4.52	inactive
42	TSSC4 (tumor suppressing subtransferable candidate 4)	SID160725088	-0.115	2.15	4.19	inactive

Records above whose target name starts with F or f:
gene	PubChem SID	G2 robust z-score	G2 cells, % of GMNN control	raw share of cells in G2 (%)	Outcome
FST (follistatin)	SID160728498	-0.417	0.0328	3.54	inactive
FST (follistatin)	SID160728499	0.836	8.85	9.93	inactive
FST (follistatin)	SID160728500	-0.716	-2.07	2.47	inactive

The list goes on:
no.	gene	PubChem SID	G2 robust z-score	G2 cells, % of GMNN control	raw share of cells in G2 (%)	Outcome
43	PIWIL2 (piwi like RNA-mediated gene silencing 2)	SID160742998	0.731	8.11	7.64	inactive
44	PIWIL2 (piwi like RNA-mediated gene silencing 2)	SID160742999	1.25	11.8	9.01	inactive
45	PIWIL2 (piwi like RNA-mediated gene silencing 2)	SID160743000	1.03	10.2	6.39	inactive
46	DPP10 (dipeptidyl peptidase like 10)	SID160746448	-0.524	-0.719	2.54	inactive
47	DPP10 (dipeptidyl peptidase like 10)	SID160746449	-0.823	-2.82	4.63	inactive
48	DPP10 (dipeptidyl peptidase like 10)	SID160746450	2.35	19.5	9.76	inactive
49	IGFBP7 (insulin like growth factor binding protein 7)	SID160775644	0.191	4.31	6.61	inactive
50	IGFBP7 (insulin like growth factor binding protein 7)	SID160775646	-0.272	1.05	4.59	inactive
51	IGFBP7 (insulin like growth factor binding protein 7)	SID160775647	-0.0277	2.77	6.74	inactive
52	SHF (Src homology 2 domain containing F)	SID160753728	-0.335	0.608	4.34	inactive
53	SHF (Src homology 2 domain containing F)	SID160753729	0.254	4.76	4.49	inactive
54	SHF (Src homology 2 domain containing F)	SID160753730	-0.616	-1.37	2.49	inactive
55	FDPS (farnesyl diphosphate synthase)	SID160764645	-0.755	-2.34	4.39	inactive
56	FDPS (farnesyl diphosphate synthase)	SID160764655	-0.323	0.695	5.53	inactive
57	FDPS (farnesyl diphosphate synthase)	SID160764666	-0.961	-3.8	2.31	inactive
58	ZRANB1 (zinc finger RANBP2-type containing 1)	SID160742127	2.01	17.1	10.6	inactive
59	ZRANB1 (zinc finger RANBP2-type containing 1)	SID160742128	-0.891	-3.3	2.53	inactive
60	ZRANB1 (zinc finger RANBP2-type containing 1)	SID160742129	-1.38	-6.75	2.89	inactive
61	TET2 (tet methylcytosine dioxygenase 2)	SID160742165	-0.967	-3.84	2.23	inactive
62	TET2 (tet methylcytosine dioxygenase 2)	SID160742166	0.0698	3.46	5.73	inactive
63	TET2 (tet methylcytosine dioxygenase 2)	SID160742167	1.58	14.1	7.86	inactive
64	MZT1 (mitotic spindle organizing protein 1)	SID160733381	0.62	7.33	5.61	inactive
65	MZT1 (mitotic spindle organizing protein 1)	SID160767718	-0.0553	2.58	4.62	inactive
66	MZT1 (mitotic spindle organizing protein 1)	SID160767719	-0.37	0.365	3.55	inactive
67	ZNF331 (zinc finger protein 331)	SID160743671	-0.67	-1.75	2.18	inactive
68	ZNF331 (zinc finger protein 331)	SID160743672	1.21	11.5	11.1	inactive
69	ZNF331 (zinc finger protein 331)	SID160743674	0.102	3.69	4.79	inactive
